Source: PubChem BioAssay AID1159578 (Peter MacCallum Cancer Centre, 2015)
Assay: 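Knock-downs that alter how fast lymphatic endothelial cells migrate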 (primary screen). System: human lymphatic endothelial cells. Reagents: siRNA pool against human genes, 40 nM. Time to read-out: 48 h after transfection. Measured: 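Cells stained with dye and imaged after a scratch; covered wound area and nuclei counted, duplicates averaged, migration set against mock wells and turned into a robust z-score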. Reading the numbers: migration robust z-score: higher = faster migration into the scratch; migration relative to mock: higher = more scratch area covered than mock; nuclei per well: higher = more cells in the well. Call rule: 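Pools averaging fewer than 3300 nuclei are never called; remaining pools count as changed when migration robust z lies outside -2 to 2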. Meaning of the calls: active = migration changed; inactive = no migration change, or too few cells.
In all, the deposit lists about 18,000 reagents; this is a part drawn at random. In the full data, about 1,030 (5.7%) got an active call. 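Inactive calls also include pools with fewer than 3300 nuclei, whose migration was not assessed.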 Raw values are not corrected between plates.

| target | migration robust z-score | migration class with cell-count check | migration relative to mock | nuclei per well, duplicate mean | activity call |
| --- | --- | --- | --- | --- | --- |
| KIR2DL1 | -0.62 | migration z between -2 and 2; enough cells | 0.72 | 5619 | inactive |
| DHDDS | 0.8 | migration z between -2 and 2; enough cells | 0.96 | 6528 | inactive |
| PAFAH1B1 | -0.16 | migration z between -2 and 2; enough cells | 0.78 | 5108 | inactive |
| LIX1L | 2.54 | migration z above 2; enough cells | 1.54 | 7891 | active |
| OR2AG1 | -0.6 | migration z between -2 and 2; enough cells | 0.73 | 5795 | inactive |
| RAB7A | -0.62 | migration z between -2 and 2; enough cells | 0.68 | 6298 | inactive |
| CELA2A | 0.94 | migration z between -2 and 2; enough cells | 0.98 | 5914 | inactive |
| PIWIL2 | -0.32 | migration z between -2 and 2; enough cells | 0.74 | 5850 | inactive |
| NCKAP5 | 1.14 | migration z between -2 and 2; enough cells | 1.18 | 6812 | inactive |
| ADAMTS4 | -1.45 | migration z between -2 and 2; enough cells | 0.52 | 5438 | inactive |
| ZNF558 | 0.66 | migration z between -2 and 2; enough cells | 1.06 | 6246 | inactive |
| FHL1 | 1.45 | migration z between -2 and 2; enough cells | 1.27 | 5350 | inactive |
| KIF20B | -0.1 | migration z between -2 and 2; enough cells | 0.78 | 6386 | inactive |
| STX19 | 0.01 | migration z between -2 and 2; enough cells | 0.88 | 5594 | inactive |
| GPT2 | 0.68 | migration z between -2 and 2; enough cells | 0.94 | 5400 | inactive |
| MRFAP1 | 0.17 | migration z between -2 and 2; enough cells | 0.93 | 6441 | inactive |
| VPS33A | 0.96 | migration z between -2 and 2; enough cells | 1.13 | 5810 | inactive |
| MT1HL1 | 1.23 | migration z between -2 and 2; enough cells | 1.21 | 5799 | inactive |
| TIE1 | -0.05 | migration z between -2 and 2; enough cells | 0.8 | 4690 | inactive |
| PLA2G12A | 0.44 | migration z between -2 and 2; enough cells | 0.89 | 4416 | inactive |
| PRSS37 | -0.53 | migration z between -2 and 2; enough cells | 0.75 | 6742 | inactive |
| ZBED10P | 0.29 | migration z between -2 and 2; enough cells | 0.96 | 6234 | inactive |
| NOX5 | -0.22 | migration z between -2 and 2; enough cells | 0.82 | 5224 | inactive |
| CPVL | 0.83 | migration z between -2 and 2; enough cells | 0.96 | 5360 | inactive |
| FGL2 | 0.39 | migration z between -2 and 2; enough cells | 0.88 | 4734 | inactive |
| ZNF789 | 0.3 | migration z between -2 and 2; enough cells | 0.97 | 5037 | inactive |
| PICK1 | -0.2 | migration z between -2 and 2; enough cells | 0.76 | 5327 | inactive |
| GNA15 | -0.62 | migration z between -2 and 2; enough cells | 0.68 | 5219 | inactive |
| TUBB4B | 1 | migration z between -2 and 2; enough cells | 1.15 | 3616 | inactive |
| MED7 | -1.68 | migration z between -2 and 2; enough cells | 0.48 | 4796 | inactive |
| LATS1 | 0.34 | migration z between -2 and 2; enough cells | 0.87 | 5036 | inactive |
| PPM1H | 0.42 | migration z between -2 and 2; enough cells | 0.88 | 6481 | inactive |
| PSKH2 | -0.24 | migration z between -2 and 2; enough cells | 0.76 | 5349 | inactive |
| TNFRSF12A | -0.34 | migration z between -2 and 2; enough cells | 0.8 | 6734 | inactive |
| RAF1 | 0 | migration z between -2 and 2; enough cells | 0.8 | 5998 | inactive |
| HSPE1 | 0.93 | migration z between -2 and 2; enough cells | 0.99 | 6134 | inactive |

Entries above whose target name starts with R or r (2):
| target | migration robust z-score | migration class with cell-count check | migration relative to mock | nuclei per well, duplicate mean | activity call |
| --- | --- | --- | --- | --- | --- |
| RAB7A | -0.62 | migration z between -2 and 2; enough cells | 0.68 | 6298 | inactive |
| RAF1 | 0 | migration z between -2 and 2; enough cells | 0.8 | 5998 | inactive |

The listing continues.
| target | migration robust z-score | migration class with cell-count check | migration relative to mock | nuclei per well, duplicate mean | activity call |
| --- | --- | --- | --- | --- | --- |
| DYNC1H1 | -0.35 | migration z between -2 and 2; enough cells | 0.8 | 6600 | inactive |
| TECPR1 | 0.37 | migration z between -2 and 2; enough cells | 0.98 | 6008 | inactive |
| ARVCF | 0.52 | migration z between -2 and 2; enough cells | 1.02 | 5964 | inactive |
| NRROS | -0.02 | migration z between -2 and 2; enough cells | 0.88 | 5722 | inactive |
| SESN3 | -1.42 | under 3300 nuclei; migration not judged | 0.52 | 2938 | inactive |
| NPNT | -1.54 | migration z between -2 and 2; enough cells | 0.48 | 3436 | inactive |
| PRMT2 | -1.56 | migration z between -2 and 2; enough cells | 0.5 | 6692 | inactive |
| CLCF1 | 0.1 | migration z between -2 and 2; enough cells | 0.82 | 5898 | inactive |
| ELMO3 | 0.26 | migration z between -2 and 2; enough cells | 0.96 | 5462 | inactive |
| ARL15 | 0.74 | migration z between -2 and 2; enough cells | 1.07 | 5412 | inactive |
| NR1D1 | -1.3 | migration z between -2 and 2; enough cells | 0.56 | 5280 | inactive |
| STIP1 | -0.38 | migration z between -2 and 2; enough cells | 0.79 | 7292 | inactive |
| CLEC1B | 0.88 | migration z between -2 and 2; enough cells | 0.98 | 5822 | inactive |
| CLEC9A | 0.5 | migration z between -2 and 2; enough cells | 1.02 | 5648 | inactive |
| FBXO39 | 0.67 | migration z between -2 and 2; enough cells | 0.94 | 5426 | inactive |
| ALG9 | 1.06 | migration z between -2 and 2; enough cells | 1.16 | 6156 | inactive |
| SAMD3 | 0.48 | migration z between -2 and 2; enough cells | 1.01 | 5799 | inactive |
| DSE | 0.69 | migration z between -2 and 2; enough cells | 1.06 | 7433 | inactive |
| HSF5 | 1.23 | migration z between -2 and 2; enough cells | 1.19 | 6306 | inactive |
| DRAP1 | 0.36 | migration z between -2 and 2; enough cells | 0.88 | 5088 | inactive |
| NT5DC2 | 1.16 | migration z between -2 and 2; enough cells | 1.19 | 5942 | inactive |
